Measured data: PubChem BioAssay AID720710 (VTT Finland, 2013)
Purpose: 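Knock-downs that leave cyclin E-high cells sensitive to replication stress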 (primary screen). Cells: human U-2 OS bone cancer cells, parental and a cyclin E (CCNE1) overexpressing line. Knock-down reagent: single siRNA against human genes, 1 µM siRNA in the printed spot mix. Time to read-out: 67 h. Treatment: half the arrays: hydroxyurea 2 mM for 16 h, then 3 h recovery; other arrays untreated. Detection: 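EdU click signal imaged per DAPI-stained nucleus at 67 h; each spot divided by its subgrid median, then z-scored relative to non-targeting control spots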. Reading the numbers: EdU z-score, cyclin E line, hydroxyurea: higher = more DNA synthesis than non-targeting controls.
Shown is one part, drawn at random, of about 1,380 deposited reagents. 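One array per condition without replicates; hydroxyurea arrays received 2 mM for 16 h plus 3 h recovery.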 Further read-outs or replicates are left out here.

PCNA (proliferating cell nuclear antigen) [SID164222474] scored EdU z-score, cyclin E line, hydroxyurea -1.14.
PCNA (proliferating cell nuclear antigen) [SID164222475] scored EdU z-score, cyclin E line, hydroxyurea -0.331.
For UBE2B (ubiquitin conjugating enzyme E2 B) [SID164222950] the deposit lists EdU z-score, cyclin E line, hydroxyurea -0.216.
After knock-down of UBE2B (ubiquitin conjugating enzyme E2 B) [SID164222951] the results were EdU z-score, cyclin E line, hydroxyurea 0.28.
Depletion of RFC3 (replication factor C subunit 3) [SID164222648] came out at: EdU z-score, cyclin E line, hydroxyurea -3.34.
For RFC3 (replication factor C subunit 3) [SID164222649], the values are EdU z-score, cyclin E line, hydroxyurea 0.235.
Against SUMO2 (small ubiquitin like modifier 2) [SID164222842] the deposit lists EdU z-score, cyclin E line, hydroxyurea -1.05.
SUMO2 (small ubiquitin like modifier 2) [SID164222843] showed EdU z-score, cyclin E line, hydroxyurea 1.05.
TNFAIP1 (TNF alpha induced protein 1) [SID164222894] showed EdU z-score, cyclin E line, hydroxyurea -0.288.
Depletion of TNFAIP1 (TNF alpha induced protein 1) [SID164222895] came out at: EdU z-score, cyclin E line, hydroxyurea 1.21.
Against GADD45A (growth arrest and DNA damage inducible alpha) [SID164221996], the entry reads EdU z-score, cyclin E line, hydroxyurea -2.28.
Depletion of GADD45A (growth arrest and DNA damage inducible alpha) [SID164221997] gave: EdU z-score, cyclin E line, hydroxyurea -1.61.
Against SMARCA2 [SID164222772], the entry reads EdU z-score, cyclin E line, hydroxyurea -0.554.
Against SMARCA2 [SID164222773], the entry reads EdU z-score, cyclin E line, hydroxyurea 0.855.
Silencing of PPP2R3B (protein phosphatase 2 regulatory subunit B''beta) [SID164222550] came out at: EdU z-score, cyclin E line, hydroxyurea -0.957.
For PPP2R3B (protein phosphatase 2 regulatory subunit B''beta) [SID164222551], the values are EdU z-score, cyclin E line, hydroxyurea 0.889.
MUTYH (mutY DNA glycosylase) [SID164222350] showed EdU z-score, cyclin E line, hydroxyurea -1.58.
Knock-down of MUTYH (mutY DNA glycosylase) [SID164222351] came out at: EdU z-score, cyclin E line, hydroxyurea 0.796.
After knock-down of PARP1 (poly(ADP-ribose) polymerase 1) [SID164222458], the record shows EdU z-score, cyclin E line, hydroxyurea -0.906.
PARP1 (poly(ADP-ribose) polymerase 1) [SID164222459] showed EdU z-score, cyclin E line, hydroxyurea -0.114.
Silencing of SETD4 (SET domain containing 4) [SID164222730] gave: EdU z-score, cyclin E line, hydroxyurea -0.766.
After knock-down of SETD4 (SET domain containing 4) [SID164222731], the record shows EdU z-score, cyclin E line, hydroxyurea 0.0291.
RBM38 (RNA binding motif protein 38) [SID164222624] scored EdU z-score, cyclin E line, hydroxyurea -1.34.
Silencing of RBM38 (RNA binding motif protein 38) [SID164222625] resulted in: EdU z-score, cyclin E line, hydroxyurea -0.832.

5 entries from above, reformatted:
{"Gene": "PCNA (proliferating cell nuclear antigen)", "PubChem SID": "SID164222474", "EdU z-score, cyclin E line, hydroxyurea": -1.14}
{"Gene": "PCNA (proliferating cell nuclear antigen)", "PubChem SID": "SID164222475", "EdU z-score, cyclin E line, hydroxyurea": -0.331}
{"Gene": "UBE2B (ubiquitin conjugating enzyme E2 B)", "PubChem SID": "SID164222950", "EdU z-score, cyclin E line, hydroxyurea": -0.216}
{"Gene": "UBE2B (ubiquitin conjugating enzyme E2 B)", "PubChem SID": "SID164222951", "EdU z-score, cyclin E line, hydroxyurea": 0.28}
{"Gene": "RFC3 (replication factor C subunit 3)", "PubChem SID": "SID164222648", "EdU z-score, cyclin E line, hydroxyurea": -3.34}

Further entries follow.
After knock-down of BLM (BLM RecQ like helicase) [SID164221722], the record shows EdU z-score, cyclin E line, hydroxyurea 0.305.
Depletion of BLM (BLM RecQ like helicase) [SID164221723] came out at: EdU z-score, cyclin E line, hydroxyurea 1.08.
For RFC1 (replication factor C subunit 1) [SID164222644], the values are EdU z-score, cyclin E line, hydroxyurea 0.609.
After knock-down of RFC1 (replication factor C subunit 1) [SID164222645], the screen gave EdU z-score, cyclin E line, hydroxyurea 2.67.
For RFC2 (replication factor C subunit 2) [SID164222646], the values are EdU z-score, cyclin E line, hydroxyurea -0.14.
With knock-down of RFC2 (replication factor C subunit 2) [SID164222647], the record shows EdU z-score, cyclin E line, hydroxyurea 0.52.
PRDM8 (PR/SET domain 8) [SID164222552] scored EdU z-score, cyclin E line, hydroxyurea -1.54.
With knock-down of PRDM8 (PR/SET domain 8) [SID164222553] the results were EdU z-score, cyclin E line, hydroxyurea 0.771.
MCM3AP [SID164222282] scored EdU z-score, cyclin E line, hydroxyurea -0.171.
Against MCM3AP [SID164222283], the entry reads EdU z-score, cyclin E line, hydroxyurea 0.11.
Knock-down of RNF144B (ring finger protein 144B) [SID164222668] came out at: EdU z-score, cyclin E line, hydroxyurea -1.99.
RNF144B (ring finger protein 144B) [SID164222669] showed EdU z-score, cyclin E line, hydroxyurea -0.756.
PARP4 (poly(ADP-ribose) polymerase family member 4) [SID164222464] showed EdU z-score, cyclin E line, hydroxyurea -1.41.
Against PARP4 (poly(ADP-ribose) polymerase family member 4) [SID164222465], the entry reads EdU z-score, cyclin E line, hydroxyurea 0.103.
Against XRCC1 (X-ray repair cross complementing 1) [SID164222996], the values are EdU z-score, cyclin E line, hydroxyurea -0.0449.
Against XRCC1 (X-ray repair cross complementing 1) [SID164222997], the values are EdU z-score, cyclin E line, hydroxyurea 1.68.
